Source: the supplement of paper PMC12067093, “Discovery and optimisation of a covalent ligand for TRIM25 and its application to targeted protein ubiquitination” (Chemical Science, 2025)
The list shows a part of the results.

Compound: CC1Cc2ccccc2N1C(=O)C1CCCN(C1)C(=O)CCl (mixture of isomers) [TRIM25 ligand 11 (diastereomer mixture)]
Assay: probe-labelled cysteine peptide fold change vs DMSO (competition) (log2 fold change); higher = less target engagement (more negative = stronger competition)
Settings: THP-1, incubation time: 4 h
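Also: competitive chemoproteomic profiling in live THP-1 cells with an iodoacetamide desthiobiotin (IA-DTB) probe, comparing probe-labelled peptide intensities in compound-treated cells against DMSO-treated controls.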

## RAD50_Q92878_48_TTIIECLK (UniProt Q92878)
10 µM
  probe-labelled cysteine peptide fold change: 0.0604
50 µM
  probe-labelled cysteine peptide fold change: 0.0148

## RACK1_P63244_249_YWLCAATGPSIK (UniProt P63244)
10 µM
  probe-labelled cysteine peptide fold change: 0.0864
50 µM
  probe-labelled cysteine peptide fold change: 0.0566

## RAB3GAP2_Q9H2M9_896_QLEDCLILQTLLHSK (UniProt Q9H2M9)
10 µM
  probe-labelled cysteine peptide fold change: 0.108
50 µM
  probe-labelled cysteine peptide fold change: -0.0281

## PUS7_Q96PZ0_319_CLMNFK (UniProt Q96PZ0)
10 µM
  probe-labelled cysteine peptide fold change: -0.123
50 µM
  probe-labelled cysteine peptide fold change: 0.0529

## RAB3GAP1_Q15042_678_MQSACLLSDMESFK (UniProt Q15042)
10 µM
  probe-labelled cysteine peptide fold change: 0.12
50 µM
  probe-labelled cysteine peptide fold change: -0.101

## RAD50_Q92878_325_LVDCHR (UniProt Q92878)
10 µM
  probe-labelled cysteine peptide fold change: 0.0273
50 µM
  probe-labelled cysteine peptide fold change: 0.131

## RAB33A_Q14088_197_ESQNVESIFMCLACR (UniProt Q14088)
10 µM
  probe-labelled cysteine peptide fold change: 0.0997
50 µM
  probe-labelled cysteine peptide fold change: -0.163

## QSOX2_Q6ZRP7_539_LQWPTPDLCPACHEEIK (UniProt Q6ZRP7)
10 µM
  probe-labelled cysteine peptide fold change: -0.0969
50 µM
  probe-labelled cysteine peptide fold change: 0.012

## RAD23B_P54727_390_ALGFPEGLVIQAYFACEK (UniProt P54727)
10 µM
  probe-labelled cysteine peptide fold change: 0.0121
50 µM
  probe-labelled cysteine peptide fold change: 0.0586

## QSER1_Q2KHR3_1709_KNEDLGQEEIVQLCMK (UniProt Q2KHR3)
10 µM
  probe-labelled cysteine peptide fold change: 0.135
50 µM
  probe-labelled cysteine peptide fold change: -0.0383

## PYGB_P11216_446_INMAHLCVIGSHAVNGVAR (UniProt P11216)
10 µM
  probe-labelled cysteine peptide fold change: -0.0787
50 µM
  probe-labelled cysteine peptide fold change: -0.0246

## PWP1_Q13610_439_MGVLFCSSCCPDLPFIYAFGGQK (UniProt Q13610)
10 µM
  probe-labelled cysteine peptide fold change: -0.123
50 µM
  probe-labelled cysteine peptide fold change: -0.00617

## RAB3GAP1_Q15042_693_AANPGCSLEDFVR (UniProt Q15042)
10 µM
  probe-labelled cysteine peptide fold change: -0.105
50 µM
  probe-labelled cysteine peptide fold change: -0.108

## PWP1_Q13610_9_QVTCVAWVR (UniProt Q13610)
10 µM
  probe-labelled cysteine peptide fold change: -0.258
50 µM
  probe-labelled cysteine peptide fold change: -0.313

## RAB33A_Q14088_135_MWIQECNGHAVPPLVPK (UniProt Q14088)
10 µM
  probe-labelled cysteine peptide fold change: -0.0486
50 µM
  probe-labelled cysteine peptide fold change: 0.0099

## PUS10_Q3MIT2_29_FCGVDFHAPYK (UniProt Q3MIT2)
10 µM
  probe-labelled cysteine peptide fold change: -0.00925
50 µM
  probe-labelled cysteine peptide fold change: 0.0875

## RAD54B_Q9Y620_521_AAELTCLTGLFILR (UniProt Q9Y620)
10 µM
  probe-labelled cysteine peptide fold change: 0.0598
50 µM
  probe-labelled cysteine peptide fold change: 0.237

## QARS_P47897_687_AFIHWVSQPLMCEVR (UniProt P47897)
10 µM
  probe-labelled cysteine peptide fold change: -0.0924
50 µM
  probe-labelled cysteine peptide fold change: -0.0962

## RAB1A_P62820_26_SCLLLR (UniProt P62820)
10 µM
  probe-labelled cysteine peptide fold change: -0.339
50 µM
  probe-labelled cysteine peptide fold change: 0.198

## QSER1_Q2KHR3_1188_TFCPPPLPK (UniProt Q2KHR3)
10 µM
  probe-labelled cysteine peptide fold change: 0.0851
50 µM
  probe-labelled cysteine peptide fold change: 0.215

## RAD50_Q92878_1296_NIDQCSEIVK (UniProt Q92878)
10 µM
  probe-labelled cysteine peptide fold change: -0.117
50 µM
  probe-labelled cysteine peptide fold change: -0.0187

## PUS3_Q9BZE2_420_CQGLESR (UniProt Q9BZE2)
10 µM
  probe-labelled cysteine peptide fold change: -0.0795
50 µM
  probe-labelled cysteine peptide fold change: -0.127

## RAB3GAP1_Q15042_218_IGCPLTPLPPVSIAIR (UniProt Q15042)
10 µM
  probe-labelled cysteine peptide fold change: 0.158
50 µM
  probe-labelled cysteine peptide fold change: -0.0394

## RABGGTA_Q92696_99_AELGFLESCLR (UniProt Q92696)
10 µM
  probe-labelled cysteine peptide fold change: 0.0177
50 µM
  probe-labelled cysteine peptide fold change: 0.117

## RABGAP1L_Q5R372_554_AEVWQLLAGCHDNQAMLDR (UniProt Q5R372)
10 µM
  probe-labelled cysteine peptide fold change: 0.152
50 µM
  probe-labelled cysteine peptide fold change: -0.00881

## RABIF_P47224_23_AVLCQR (UniProt P47224)
10 µM
  probe-labelled cysteine peptide fold change: -0.0165
50 µM
  probe-labelled cysteine peptide fold change: 0.196

## PYCR1_P32322_262_SLLINAVEASCIR (UniProt P32322)
10 µM
  probe-labelled cysteine peptide fold change: 0.0613
50 µM
  probe-labelled cysteine peptide fold change: 0.117

## RAB43_Q86YS6_157_SDLSELREVSLAEAQSLAEHYDILCAIETSAK (UniProt Q86YS6)
10 µM
  probe-labelled cysteine peptide fold change: -0.241
50 µM
  probe-labelled cysteine peptide fold change: -0.328

## PYCR3_Q53H96_49+56_NLCHFQALGCR (UniProt Q53H96)
10 µM
  probe-labelled cysteine peptide fold change: 0.0116
50 µM
  probe-labelled cysteine peptide fold change: -0.211

## PXN_P49023_384+387_TWHPEHFVCTHCQEEIGSR (UniProt P49023)
10 µM
  probe-labelled cysteine peptide fold change: 0.000376
50 µM
  probe-labelled cysteine peptide fold change: -0.00391

## R3HCC1_Q9Y3T6_94_VPSSDGLSGPCR (UniProt Q9Y3T6+R3HCC1)
10 µM
  probe-labelled cysteine peptide fold change: -0.0332
50 µM
  probe-labelled cysteine peptide fold change: 0.125

## RAB43_Q86YS6_157_EVSLAEAQSLAEHYDILCAIETSAK (UniProt Q86YS6)
10 µM
  probe-labelled cysteine peptide fold change: 0.187
50 µM
  probe-labelled cysteine peptide fold change: 0.0292

## RABGAP1L_Q5R372_139_LTYLGCMK (UniProt Q5R372)
10 µM
  probe-labelled cysteine peptide fold change: 0.1
50 µM
  probe-labelled cysteine peptide fold change: 0.0681

## RABL6_Q3YEC7_172_VPTHVPVCVLGNYR (UniProt Q3YEC7)
10 µM
  probe-labelled cysteine peptide fold change: 0.0329
50 µM
  probe-labelled cysteine peptide fold change: 0.101

## RAB14_P61106_26_SCLLHQFTEKK (UniProt P61106)
10 µM
  probe-labelled cysteine peptide fold change: -0.449
50 µM
  probe-labelled cysteine peptide fold change: -0.303

## PYGB_P11216_496_WLLLCNPGLADTIVEK (UniProt P11216)
10 µM
  probe-labelled cysteine peptide fold change: 0.0579
50 µM
  probe-labelled cysteine peptide fold change: -0.0203

## RAB14_P61106_40_FMADCPHTIGVEFGTR (UniProt P61106)
10 µM
  probe-labelled cysteine peptide fold change: 0.129
50 µM
  probe-labelled cysteine peptide fold change: 0.0136

## RABGGTA_Q92696_145_NFHCWDYR (UniProt Q92696)
10 µM
  probe-labelled cysteine peptide fold change: 0.176
50 µM
  probe-labelled cysteine peptide fold change: 0.0301

## QSOX1_O00391_512_ELCSACHNER (UniProt O00391)
10 µM
  probe-labelled cysteine peptide fold change: 0.121
50 µM
  probe-labelled cysteine peptide fold change: -0.0923
